PubChem BioAssay AID504786 | Drosophila RNAi Screening Center | 2011

Aim: 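Positive regulators of HIF-driven reporter output in Drosophila cells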 (primary screen)
System: Drosophila S2 cells with a stable HIF luciferase reporter
Knock-down reagent: long dsRNA against Drosophila genes, about 0.2 µg dsRNA per well of a 384-well plate
Time to read-out: three days of knock-down, then 20 h of DFO before reading
Conditions: desferrioxamine (DFO) at 100 µM, an iron chelator that mimics hypoxia, for 20 h
Detection: 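Firefly luciferase driven by the mouse ldh-a hypoxia-response element, measured after 20 h of 100 µM DFO; z-scores per plate, higher means more signal lost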
Reading the numbers: z-score: higher = stronger loss of HIF reporter signal
In all, the deposit lists about 21,000 reagents; shown is a random part of those that have a named target and a result. 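Primary screen; positive scores mean lost reporter signal, so the sign may be inverted from the usual convention.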

CG6236 (GeneID 41857)
- z-score, replicate 1: -0.4
- z-score, replicate 2: -0.4

awd (GeneID 43739)
- z-score, replicate 1: -0.4
- z-score, replicate 2: -0.1

Pdcd4 (GeneID 32337)
- z-score, replicate 1: -0.6
- z-score, replicate 2: -0.7

CG9338 (GeneID 35357)
- z-score, replicate 1: -0.3
- z-score, replicate 2: -1.3

Inx5 (GeneID 32901)
- z-score, replicate 1: -0.3
- z-score, replicate 2: 0

Taken from above:
Under “z-score, replicate 2”, Pdcd4 (GeneID 32337) has -0.7
CG6236 (GeneID 41857), z-score, replicate 2: -0.4

More results:
AIMP2 (GeneID 39690)
- z-score, replicate 1: -0.3
- z-score, replicate 2: -0.5

Dbct (GeneID 32441)
- z-score, replicate 1: -0.4
- z-score, replicate 2: -0.5

CG7156 (GeneID 42187)
- z-score, replicate 1: -0.3
- z-score, replicate 2: -0.3

Hn (GeneID 38871)
- z-score, replicate 1: -0.4
- z-score, replicate 2: -0.6

CG9702 (GeneID 43634)
- z-score, replicate 1: -0.3
- z-score, replicate 2: -0.6

CG11378 (GeneID 31060)
- z-score, replicate 1: -0.4
- z-score, replicate 2: -0.1

CG10077 (GeneID 38756)
- z-score, replicate 1: -0.2
- z-score, replicate 2: 0.3

Jon65Aiv (GeneID 38682)
- z-score, replicate 1: -0.3
- z-score, replicate 2: -0.7

CG15385 (GeneID 33396)
- z-score, replicate 1: -0.1
- z-score, replicate 2: -0.1

Zip88E (GeneID 41847)
- z-score, replicate 1: -0.2
- z-score, replicate 2: -0.4

alphaTub85E (GeneID 41183)
- z-score, replicate 1: 2.8
- z-score, replicate 2: 3.5
